Measured values published in publication PMC10163288.
The list shows a part of the results.

B1: il10ra_site1_sap_18_mot_HHH_b2_03827_000000021_0001_1_19_H_._HHH_b1_08445_0001_0000400052_0000002_0_0001 (protein)
chain: SSSSSDVEEEIEELLEEAKRIEDPEQAKEVILRAAALAARLRDPHLSMLVIHVYAELDQRSSSSS
B2: il10ra_site1_normal_mot_HHH_b2_03220_af2_000000223_0001_23_40_H_._HHH_b2_02346_0001_0000100008_0000002_0_af2pred_0001 (protein)
chain: SSSSSSEELEEALKLLREALQIDDPEEARRVAEEAVEILEEAGNEEALRIAELILRNLKSSSSSS
B3: il10ra_site1_sap_16_mot_HHH_b1_06816_000000239_0001_1_19_H_._HHH_b1_03929_0001_0000100004_0000001_1_0001 (protein)
chain: SSSSDESYEHAKRVIRELIRLLEEGDPEEAERLAEEARQFLEEAGNQLAAMTIRYSFERTSSSSS
B4: il10ra_site1_normal_mot_HHH_b2_07579_000000275_0001_1_19_H_._HHH_b2_05024_0001_0000100002_0000003_0 (protein)
chain: SSSSTEEHRELYELLREALELVARGDPEEAREVLEEAIELAQELGNYVFLFAAEHLYRDHSSSSS
B5: il10ra_site1_normal_mot_65b8060e20531850bca9f2e11f97d954_0001_af2_000000137_0001_17_31_H_._HHH_b1_06583_0001_0000200011_0000002_0 (protein)
chain: SSSSSEEERRALELIVRISRLLNRGDKEEAEELLEELEELAEKLNDPRLRQSLQFLEALLNSSSS
B6: il10ra_site1_normal_mot_HHH_b2_02736_000000092_0001_22_38_H_._HHH_b1_01700_0001_0000400037_0000001_0 (protein)
chain: SSSSDQEVYELLRELIEALSEGDEERFEELLEEVRRLAEELNNFALLFAIRLLEEQFRQLHSSSS
B7: il10ra_site1_normal_mot_HHH_b1_02708_af2_000000019_0001_23_39_H_._HHH_b1_07222_0002_0000600032_0000002_0 (protein)
chain: SSSDREEVVELLYRINRAAQEGDEELLEELLELLEELLKEIKDPEVRKYAEIALRFLENHLSSSS
B8: il10ra_site1_sap_18_mot_HHH_b1_06789_af2_000000041_0001_1_20_H_._HHH_b2_05092_af2_0001_0000200004_0000002_0_0001_af2pred_0001 (protein)
chain: SSSSDELERRAEELLEEAEERNDELAALIARAVLILVRLAEELGDPERAKLSLKDLEATLSSSSS
B9: il10ra_site1_sap_15_mot_HHH_b2_02347_000000198_0001_23_40_H_._HHH_b2_06432_0001_0000500028_0000002_0_0001 (protein)
chain: SSSSDEEVREEVEELLEEAEKIEDEHERAQLMFEALRLASENRDEELLEEIIRVIAELMDSSSSS
B10: il10ra_site1_sap_14_mot_HHH_eva_0266_af2_000000000_0001_3_18_H_._HHH_b1_03321_0001_0000100001_0000001_0_0001 (protein)
chain: SSSSYEELKKLIERITRALREGNREEAQELIERVEELAEERNDWSARFVARVLQEALEANSSSSS
B11: il10ra_site1_normal_mot_HHH_b2_00033_000000036_0001_41_54_H_._HHH_b2_03374_0001_0000100007_0000001_0 (protein)
chain: SSSSDEEEEELQRILEELEEAVERGDQEAVARLAQEAIRIAIRLNDPEIFQKLWEVAKAFVSSSS
B12: il10ra_site1_normal_mot_fda5df8c19bda1ddfcc41857df859eb0_0001_1_000000120_0001_35_49_H_._2ff9a36852ec7b54996b5ca24e2ac07d_0001_0001_0000100003_0000001_0_1_af2pr … (protein)
chain: SQEELRLRAAIRLSPEAFVLAVLALARRAGVPPEEVEKLEERLRELLKRGNEEEAIELALEVLKR
B13: il10ra_site1_normal_mot_HHH_b1_07835_af2_000000063_0001_1_16_H_._HHH_b1_05937_0001_0000500035_0000001_1_af2pred_0001 (protein)
chain: SSSSSDEEEERIEELLEEMKHIKDEREFAQKVFEALKRIAEIKNEELFHLLIKIASEFLSSSSSS
B14: il10ra_site1_sap_20_mot_HHH_b1_05254_000000006_0001_1_19_H_._HHH_b1_07585_0001_0000200008_0000002_0_0001 (protein)
chain: SSSSSDEDEEYVRMSLRFAKWLAKYDPEAARRIVKAALDFARAHGDPLAEEIEELLEELESSSSS
B15: il10ra_site1_sap_26_mot_HHH_b1_04693_000000238_0001_19_36_H_._HHH_b2_01018_0001_0000100004_0000002_0_0001_af2pred_0001 (protein)
chain: SSSSSSDRVERIVRLLLLSAERTEDEEVLRAALRLARQVAEANGDEEAEKLVEEVQERLSSSSSS
B16: il10ra_site1_normal_mot_HHH_b2_02497_000000220_0001_1_20_H_._HHH_b1_03596_af2_0001_0000300014_0000001_0 (protein)
chain: SSSSDDEVYELIRRAIELISDGNPEEAEEVLKEAEELAREANNPNMEWVLEFLKRLLERYSSSSS
B17: il10ra_site1_sap_24_mot_ec1b5fbdfc68683bf2e332ee276bd15f_0001_af2_000000176_0001_16_30_H_._6f4e18b70ea6afe83e6ac5c3da76eb22_0001_0001_0000400029_0000001_0_0001 (protein)
chain: SSSSSEFLERDLRAIEHIIRAGDKEYARLALRFVKYLAEELNDEEVQEEIERLEELLEEISSSSS
B18: il10ra_site1_sap_25_mot_HHH_b2_03038_000000109_0001_1_20_H_._HHH_b2_05280_af2_0001_0000200012_0000001_0_0001 (protein)
chain: SELLKKAFELQRRQGTPPEQVVEALVFLLAMRHNIPPEEAKELLLEIAEELGDPELEELVEKILR
B19: il10ra_site1_normal_mot_HHH_b1_06128_000000102_0001_1_20_H_._HHH_b2_08377_af2_0001_0000600009_0000001_1 (protein)
chain: SSSSDLQELAARAVLRAARLFIRGNREEAERLLEEVEEELEKKNNEEALEVVRRALEILRSSSSS
B20: il10ra_site1_normal_mot_HHH_b2_02736_000000092_0001_22_38_H_._HHH_b1_03120_0001_0000400042_0000001_0 (protein)
chain: SSSSNEEDQELYERLRKLIELVTEGDEEEAEELLEELERLARELNNFIILFVVRLLKRQLSSSSS
B21: il10ra_site1_sap_23_mot_HHH_b2_00441_000000175_0001_1_18_H_._HHH_b2_06532_0001_0000100006_0000001_0_0001_af2pred_0001 (protein)
chain: SSPEEAQKLLEEAEELAEEQNDKHALAAVRFWKHLDEWAKERNDERLVELVARAARVLLRILQES
B22: il10ra_site1_normal_mot_HHH_b1_01821_000000158_0001_23_39_H_._HHH_b2_02890_0001_0000400020_0000001_0 (protein)
chain: SSSSSEAEERVEELLEEAKHIEDPKEVNRLLLEALRLAYEAKNEELLQEIWEVFQELIELLSSSS
B23: il10ra_site1_normal_mot_HHH_b1_05056_000000217_0001_1_20_H_._HHH_b1_04508_0001_0000500021_0000001_1 (protein)
chain: SSSSSSSDQEEVEELLEEAEHIEDPRERTEVLLEATHLALRLQDPELLQLVWEVVRRLSSSSSSS
B24: il10ra_site1_normal_mot_HHH_b1_01880_000000285_0001_23_39_H_._HHH_b2_03857_0001_0000200012_0000001_0_af2pred_0001 (protein)
chain: SSSSSLEESVEFFLHLIEWALERNDPEAAEAAIEAAKRALRLANDEEAQEILEKLEEELNSSSSS

What follows are binders tested against il10ra, Q13651 (assay: yeast display titration).

Apparent Kd, inactive:
B1 no binding seen
B2 no binding seen
B3 no binding seen
B4 no binding seen
B5 no binding seen
B6 no binding seen
B7 no binding seen
B8 no binding seen
B9 no binding seen
B10 no binding seen
B11 no binding seen
B12 no binding seen
B13 no binding seen
B14 no binding seen
B15 no binding seen
B16 no binding seen
B17 no binding seen
B18 no binding seen
B19 no binding seen
B20 no binding seen
B21 no binding seen
B22 no binding seen
B23 no binding seen
B24 no binding seen

Nothing new here: entries from further up.
Apparent Kd, inactive:
B13 no binding seen
B14 no binding seen
B15 no binding seen
B16 no binding seen
B17 no binding seen
